Assay results as given in PubChem BioAssay (Tox21).
Several values for one entry are separate records, joined by “and”; a condition that tells them apart may be missing. Identical values can stand only once. This list was built around the results that the source calls inconclusive (neither active nor inactive); the mix of calls is not that of the screen. Potencies of inconclusive entries are doubtful fits and often do not repeat. Activity calls are given as the source filed them. Calls come from the whole dose curve; as a rule, active = well fitted inhibition curve with a large enough effect in the repeat runs; inconclusive = weak or mixed curves; inactive = no such curve, though single readings can be large or run the other way.

Sequences of proteins named here, by UniProt entry; tags and fusion partners are left off.
UniProt P11712, whole entry, looked up: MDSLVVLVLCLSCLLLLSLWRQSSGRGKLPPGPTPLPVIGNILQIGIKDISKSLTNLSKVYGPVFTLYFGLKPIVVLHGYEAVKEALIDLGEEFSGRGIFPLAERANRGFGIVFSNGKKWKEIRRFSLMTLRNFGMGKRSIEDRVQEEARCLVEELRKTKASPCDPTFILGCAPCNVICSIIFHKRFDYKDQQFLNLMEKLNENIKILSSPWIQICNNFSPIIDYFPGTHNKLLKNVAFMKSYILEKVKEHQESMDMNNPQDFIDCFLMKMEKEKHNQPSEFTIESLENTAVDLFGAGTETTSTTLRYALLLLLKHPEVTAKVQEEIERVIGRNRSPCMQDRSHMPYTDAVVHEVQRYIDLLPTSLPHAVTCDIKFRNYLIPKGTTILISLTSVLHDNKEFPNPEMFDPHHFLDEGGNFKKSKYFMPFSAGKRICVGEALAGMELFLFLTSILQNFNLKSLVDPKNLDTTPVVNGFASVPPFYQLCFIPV

Target: Cytochrome P450 2C9 (Homo sapiens) (UniProt P11712)
Assay: Cytochrome P450 Family 2 Subfamily C Member 9 (CYP2C9) small molecule antagonists: luciferase reporter qHTS assay (AID 1671198); note: nearly all actives have a fitted effect of over 50% in size
Details: P450-Glo CYP2C9 enzyme assay, luciferin luminescence; series mostly up to 115 µM
Description: U.S. Tox21 Program National Center for Advancing Translational Sciences [NCATS] U.S. Environmental Protection Agency [EPA] National Institutes of Environmental Health Sciences [NIEHS] National Toxicology Program [NTP] U.S. Food and Drug Administration [FDA] Tox21 Assay Overview: Cytochrome P450 (CYP) enzymes are membrane-bound hemeproteins that play a key role in metabolism of drugs and xenobiotics. Evaluation of the effect of chemicals on CYP isozymes is useful to minimize the adverse drug reactions and toxicities in drug development process. Tox21 chemicals were tested for their effect on CYP enzyme activities by using P450-Glo (TM) screening systems (Promega Corporation, Madison, WI). These systems provide a luminescent method containing proluciferin substrates and are converted to luciferin products by CYP isozymes. The luciferin products formed are detected with a luciferin detection reagent, and the amount of light produced is proportional to CYP activity. P450-Glo (TM) CYP2C9 screening system (Catalog. No. V9790) was used to detect the compounds that interfere in CYP2C9 activity.
Tox21 Assay Protocol Summary: Two ul of enzyme-substrate mix was dispensed into medium binding white/solid 1536-well plates (Greiner Bio-One North America Inc., Monroe, NC) using a BioRaptr Flying Reagent Dispenser (FRD, Beckman Coulter, Brea, CA). […] The assay plates were incubated at room temperature for 10 min. Then 2 ul of NADPH regeneration solution was added to each well of the assay plates using an FRD and incubated at 37C for 1 h. The reaction was stopped by adding 4 ul of detection reagent using an FRD and after 20 min incubation at room temperature the luminescence signal was measured using a ViewLux plate reader (Perkin Elmer, Shelton, CT). Data were expressed as relative luminescence units.
Potency is the fitted concentration of half-maximal effect.

| Compound | Potency |
| --- | --- |
| CCCCCC1CCCC(=O)O1 (stereo not given) | inactive |
| COc1ccccc1N1CCN(CC(O)COc2cc(OC)c(OC)c(OC)c2)CC1 (stereo not given) | inconclusive: 21.9 µM [inhibitor, partial curve] |
| O=[N+]([O-])c1cccc(Cl)c1Cl | inactive |
| CC(C)C[C@@H]1[C@H](c2ccccc2)OC(=O)N1CCCN1CCCCCC1 | inconclusive: 43.6 µM [inhibitor, partial curve, poor fit] |
| CCOc1ccccc1O | inactive |
| CCCOCCOCCOCCO | inactive |
| Cc1cc(=O)[nH]c(=S)[nH]1 | inactive and inconclusive: 56.4 µM [inhibitor, partial curve, poor fit] |
| OCCCc1ccccc1 | inactive |
| CCOC(=O)CN1CCCC1=O | inactive |
| OCc1cccc(Oc2ccccc2)c1 | inconclusive: 64.3 µM [inhibitor, partial curve] |
| Nc1cc(N)cc(C(=O)O)c1 | inconclusive: 50.2 µM [inhibitor, partial curve] |
| CC1OC(=O)C(C)OC1=O (stereo not given) | inactive |
| NC(=O)N[C@@H](CCC(=O)O)C(=O)O | inactive |
| CCOC(=O)c1c(C)n(C)c2ccc(O)cc12 | inconclusive: 12.3 µM [inhibitor, full curve] |
| CO[C@]12C[C@@H](COC(=O)c3cncc(Br)c3)CN(C)[C@@H]1Cc1cn(C)c3cccc2c13 | inactive |
| Cc1nc2n(c(=O)c1CCN1CCC(C(=O)c3ccc(F)cc3)CC1)CCS2 | inconclusive: 15.5 µM [inhibitor, partial curve, poor fit] |
| CCCCCO | inactive |
| CCCC(CCC)(C(=O)OCC)C(=O)OCC | inconclusive: 17.4 µM [inhibitor, partial curve, poor fit] |
| N=C(N=C(N)N)N1CCOCC1 | inactive |
| CCO[Si](OCC)(OCC)c1ccccc1 | inactive |

| Compound | Potency |
| --- | --- |
| Clc1nc2ccccc2s1 | inactive |
| O=C(O)CC(O)C(=O)O (stereo not given) | inconclusive: 81.9 µM [inhibitor, partial curve, poor fit] |
| CC(C)(C)OC=O | inactive |
| C1CN(CCOCCN2CCOCC2)CCO1 | inactive |
| O=C1OC(=O)c2cc(Oc3ccc4c(c3)C(=O)OC4=O)ccc21 | inactive |
| CC(=O)Nc1c(I)cc(I)c(C(=O)O)c1I | inconclusive: 38.9 µM [inhibitor] |
| CCc1cc(S(=O)(=O)O)c2cc(C(C)C)cccc1-2 | inconclusive: 34.7 µM [inhibitor, partial curve] |
| N#CC1(O)CCCCC1 | inconclusive: 63.7 µM [inhibitor, partial curve, poor fit] |
| CCn1cc(C(=O)O)c(=O)c2cnc(N3CCCC3)nc21 | inconclusive: 7.1 µM [inhibitor, partial curve, poor fit] |
| CC(=O)OC(C)OC(=O)C(C)c1ccc(-c2ccccc2)c(F)c1 (stereo not given) | active: 3.47 µM |
| C=CCNCC=C | inconclusive: 63.3 µM [inhibitor, partial curve, poor fit] |
| CC(C)(C)c1cc(CCC(=O)NCCCCCCNC(=O)CCc2cc(C(C)(C)C)c(O)c(C(C)(C)C)c2)cc(C(C)(C)C)c1O | active: 1.42 µM |
| CCCOC(=O)CC | inconclusive: 44.7 µM [inhibitor, partial curve, poor fit] |
| NC(CO)C(=O)NNCc1ccc(O)c(O)c1O (stereo not given) | inconclusive: 30.9 µM [inhibitor, partial curve] |
| CC(C)(O)c1ccccc1 | inconclusive: 43 µM [inhibitor, partial curve, poor fit] |
| CCOc1ccc2nc(S(N)(=O)=O)sc2c1 | inconclusive: 15.5 µM [inhibitor, full curve] |
| CCOC(=O)c1ccc(N)cc1 | inconclusive: 17.4 µM [inhibitor, full curve, poor fit] |
| CCOc1ccc(NC(=O)OC(C)C)cc1OCC | inactive |
| CCCCCCCCCOS(=O)(=O)O | active: 22.4 µM |
| CN/C(=C\[N+](=O)[O-])NCCSCc1ccc(CN(C)C)o1 | inconclusive: 17.4 µM [inhibitor, full curve, poor fit] |
